The text below walks through data of paper PMC4176167, “Solution structure and intramolecular exchange of methyl-cytosine binding domain protein 4 (MBD4) on DNA suggests a mechanism to scan for mCpG/TpG mismatches”.

Sequences of proteins named here, by UniProt entry; tags and fusion partners are left off. Residues count along the entry.
UniProt O95243, residues 80-148: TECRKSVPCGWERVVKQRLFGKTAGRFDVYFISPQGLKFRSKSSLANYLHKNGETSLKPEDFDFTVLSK

This assay addresses methyl-cytosine binding domain of human MBD4 (amino acids 80-148) (human) (UniProt O95243). The experiment in a line: NMR residual dipolar couplings; 2H,13C,15N-labelled MBD4MBD with 10% excess dsDNA, 10 mM NaPO4 pH 6.5, 1 mM DTT, 25 C, aligned with ~12 mg/ml pf1 bacteriophage; couplings fitted (PALES) to the crystal structure of mouse MBD4MBD bound to methylated DNA; both purified.

No constants are given. Whether binding was seen depends on the method and setting.

For the substance “methyl-cytosine binding domain of human MBD4 (amino acids 80-148) (from UniProt O95243 80-148) (domain or fragment)”, the binding result is on record as “no binding (tested: 0.2–1 mM)”.
